Some of the results follow. The data scatter; read single values as rough.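 Many melting curves are irregular; where none melted, Tm was taken as 64 °C.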
These targets were tested with CCc1cnccc1C(=O)Nc1cc2c(cc1F)NC(=O)CC2 (assay: melting temperature shift (DMSO Tm minus MBE1-treated Tm) in cellular thermal proteome profiling; higher = less thermal stabilization by MBE1 (negative = stabilized by MBE1)). Settings: A375; MBE1 concentration: 100 nM.

Protein sequences, listed by entry. Tags and fused reporters are not part of them. Lines headed by an entry give the natural chain unless they say otherwise; changes in a name come on top.
UniProt Q7Z5G4, whole entry: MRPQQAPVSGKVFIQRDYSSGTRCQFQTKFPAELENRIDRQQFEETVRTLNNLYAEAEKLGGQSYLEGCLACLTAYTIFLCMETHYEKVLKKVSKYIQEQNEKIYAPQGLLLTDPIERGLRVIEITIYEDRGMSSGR
UniProt Q7Z4H3: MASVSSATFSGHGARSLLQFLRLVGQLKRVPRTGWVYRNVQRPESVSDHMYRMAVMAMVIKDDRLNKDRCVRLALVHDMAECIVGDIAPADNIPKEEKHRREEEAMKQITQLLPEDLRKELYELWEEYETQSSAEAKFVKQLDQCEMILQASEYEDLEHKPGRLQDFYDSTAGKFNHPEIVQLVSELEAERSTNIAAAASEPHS
UniProt Q7Z4Q2: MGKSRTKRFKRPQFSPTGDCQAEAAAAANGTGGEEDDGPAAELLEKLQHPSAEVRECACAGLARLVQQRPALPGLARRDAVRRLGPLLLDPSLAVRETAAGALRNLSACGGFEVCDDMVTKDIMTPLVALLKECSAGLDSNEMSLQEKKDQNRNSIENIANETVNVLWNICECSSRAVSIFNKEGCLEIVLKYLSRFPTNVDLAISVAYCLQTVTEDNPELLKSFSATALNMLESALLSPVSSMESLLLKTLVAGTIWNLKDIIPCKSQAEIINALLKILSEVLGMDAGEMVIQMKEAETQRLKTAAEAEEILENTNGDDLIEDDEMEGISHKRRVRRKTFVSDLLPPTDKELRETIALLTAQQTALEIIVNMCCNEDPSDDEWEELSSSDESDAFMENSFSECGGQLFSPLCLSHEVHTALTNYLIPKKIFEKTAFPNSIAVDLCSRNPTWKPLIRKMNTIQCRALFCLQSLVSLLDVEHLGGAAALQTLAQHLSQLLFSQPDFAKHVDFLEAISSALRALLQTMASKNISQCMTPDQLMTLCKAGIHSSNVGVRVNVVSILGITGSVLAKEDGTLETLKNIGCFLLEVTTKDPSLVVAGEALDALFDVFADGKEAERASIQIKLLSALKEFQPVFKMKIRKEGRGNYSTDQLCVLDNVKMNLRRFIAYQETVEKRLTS
UniProt Q6PL24: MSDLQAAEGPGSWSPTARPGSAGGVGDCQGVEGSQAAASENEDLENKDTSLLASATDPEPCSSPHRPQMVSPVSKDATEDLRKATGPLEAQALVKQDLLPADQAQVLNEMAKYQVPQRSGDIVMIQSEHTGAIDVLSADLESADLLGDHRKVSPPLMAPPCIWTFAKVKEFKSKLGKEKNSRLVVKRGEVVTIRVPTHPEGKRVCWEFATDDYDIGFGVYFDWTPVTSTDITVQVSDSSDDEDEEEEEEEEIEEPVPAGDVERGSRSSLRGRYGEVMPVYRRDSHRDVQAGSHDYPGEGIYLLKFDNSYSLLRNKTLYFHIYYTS
UniProt Q7Z478: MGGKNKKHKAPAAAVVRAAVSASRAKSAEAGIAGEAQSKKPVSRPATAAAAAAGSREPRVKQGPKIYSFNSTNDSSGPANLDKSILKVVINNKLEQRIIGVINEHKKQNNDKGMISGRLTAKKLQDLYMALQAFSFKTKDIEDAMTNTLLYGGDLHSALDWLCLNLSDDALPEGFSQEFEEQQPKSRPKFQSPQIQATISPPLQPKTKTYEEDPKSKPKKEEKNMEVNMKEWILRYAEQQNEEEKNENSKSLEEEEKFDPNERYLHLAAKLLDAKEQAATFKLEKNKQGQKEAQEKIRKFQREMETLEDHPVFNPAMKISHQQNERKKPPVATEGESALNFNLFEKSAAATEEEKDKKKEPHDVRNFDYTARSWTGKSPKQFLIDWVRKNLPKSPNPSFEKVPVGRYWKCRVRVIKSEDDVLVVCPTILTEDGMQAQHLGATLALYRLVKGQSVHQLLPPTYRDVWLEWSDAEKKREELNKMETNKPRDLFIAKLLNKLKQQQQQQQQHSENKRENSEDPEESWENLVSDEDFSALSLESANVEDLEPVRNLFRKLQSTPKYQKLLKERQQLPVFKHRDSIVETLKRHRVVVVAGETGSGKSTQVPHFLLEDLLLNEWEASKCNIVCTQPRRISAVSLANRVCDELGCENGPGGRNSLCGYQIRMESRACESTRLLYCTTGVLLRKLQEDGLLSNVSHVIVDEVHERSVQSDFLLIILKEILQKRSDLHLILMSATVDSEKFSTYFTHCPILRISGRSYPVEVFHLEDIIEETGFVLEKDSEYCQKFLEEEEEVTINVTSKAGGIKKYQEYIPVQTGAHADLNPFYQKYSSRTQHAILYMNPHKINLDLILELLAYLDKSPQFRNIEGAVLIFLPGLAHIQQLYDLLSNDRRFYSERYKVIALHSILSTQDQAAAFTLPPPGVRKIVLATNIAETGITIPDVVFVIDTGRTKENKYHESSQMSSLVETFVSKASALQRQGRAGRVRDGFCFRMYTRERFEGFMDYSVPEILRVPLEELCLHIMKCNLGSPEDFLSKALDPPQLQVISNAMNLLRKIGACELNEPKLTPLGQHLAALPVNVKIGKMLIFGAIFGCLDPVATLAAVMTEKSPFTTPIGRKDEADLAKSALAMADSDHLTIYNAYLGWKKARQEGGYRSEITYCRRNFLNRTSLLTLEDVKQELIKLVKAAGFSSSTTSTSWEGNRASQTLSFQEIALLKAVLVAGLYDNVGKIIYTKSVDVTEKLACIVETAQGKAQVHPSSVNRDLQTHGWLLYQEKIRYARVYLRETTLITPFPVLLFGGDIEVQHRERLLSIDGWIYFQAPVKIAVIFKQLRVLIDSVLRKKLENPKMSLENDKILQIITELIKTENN
UniProt Q86V59: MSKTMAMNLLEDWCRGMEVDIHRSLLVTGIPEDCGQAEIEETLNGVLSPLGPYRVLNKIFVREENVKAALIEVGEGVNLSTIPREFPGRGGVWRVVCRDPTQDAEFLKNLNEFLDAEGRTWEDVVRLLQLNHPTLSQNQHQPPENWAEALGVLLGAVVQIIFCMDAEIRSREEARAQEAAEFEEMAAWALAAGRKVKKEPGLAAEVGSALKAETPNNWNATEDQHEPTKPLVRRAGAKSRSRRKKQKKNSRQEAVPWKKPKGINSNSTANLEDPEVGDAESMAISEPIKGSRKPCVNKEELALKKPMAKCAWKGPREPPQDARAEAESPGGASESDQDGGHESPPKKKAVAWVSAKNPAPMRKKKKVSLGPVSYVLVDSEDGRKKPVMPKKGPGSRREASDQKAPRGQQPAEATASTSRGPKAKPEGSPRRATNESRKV
UniProt Q6Y2X3: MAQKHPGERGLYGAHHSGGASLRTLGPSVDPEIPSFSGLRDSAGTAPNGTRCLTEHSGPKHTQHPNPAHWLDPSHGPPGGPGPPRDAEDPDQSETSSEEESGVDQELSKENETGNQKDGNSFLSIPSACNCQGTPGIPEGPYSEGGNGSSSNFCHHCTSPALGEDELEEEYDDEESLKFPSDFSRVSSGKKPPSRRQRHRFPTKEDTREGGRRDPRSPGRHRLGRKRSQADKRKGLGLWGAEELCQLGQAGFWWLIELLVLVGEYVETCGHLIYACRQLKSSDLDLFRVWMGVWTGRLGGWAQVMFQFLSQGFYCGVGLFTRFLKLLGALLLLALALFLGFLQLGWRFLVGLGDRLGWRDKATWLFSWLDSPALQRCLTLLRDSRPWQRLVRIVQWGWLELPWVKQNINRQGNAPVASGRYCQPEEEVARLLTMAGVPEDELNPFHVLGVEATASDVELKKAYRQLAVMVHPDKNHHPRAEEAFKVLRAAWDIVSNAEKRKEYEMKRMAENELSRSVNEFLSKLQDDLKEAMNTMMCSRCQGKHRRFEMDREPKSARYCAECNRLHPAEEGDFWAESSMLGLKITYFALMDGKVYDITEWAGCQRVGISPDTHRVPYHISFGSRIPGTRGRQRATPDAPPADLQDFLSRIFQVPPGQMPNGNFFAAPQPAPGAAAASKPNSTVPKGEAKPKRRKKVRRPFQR
UniProt Q7Z5L2: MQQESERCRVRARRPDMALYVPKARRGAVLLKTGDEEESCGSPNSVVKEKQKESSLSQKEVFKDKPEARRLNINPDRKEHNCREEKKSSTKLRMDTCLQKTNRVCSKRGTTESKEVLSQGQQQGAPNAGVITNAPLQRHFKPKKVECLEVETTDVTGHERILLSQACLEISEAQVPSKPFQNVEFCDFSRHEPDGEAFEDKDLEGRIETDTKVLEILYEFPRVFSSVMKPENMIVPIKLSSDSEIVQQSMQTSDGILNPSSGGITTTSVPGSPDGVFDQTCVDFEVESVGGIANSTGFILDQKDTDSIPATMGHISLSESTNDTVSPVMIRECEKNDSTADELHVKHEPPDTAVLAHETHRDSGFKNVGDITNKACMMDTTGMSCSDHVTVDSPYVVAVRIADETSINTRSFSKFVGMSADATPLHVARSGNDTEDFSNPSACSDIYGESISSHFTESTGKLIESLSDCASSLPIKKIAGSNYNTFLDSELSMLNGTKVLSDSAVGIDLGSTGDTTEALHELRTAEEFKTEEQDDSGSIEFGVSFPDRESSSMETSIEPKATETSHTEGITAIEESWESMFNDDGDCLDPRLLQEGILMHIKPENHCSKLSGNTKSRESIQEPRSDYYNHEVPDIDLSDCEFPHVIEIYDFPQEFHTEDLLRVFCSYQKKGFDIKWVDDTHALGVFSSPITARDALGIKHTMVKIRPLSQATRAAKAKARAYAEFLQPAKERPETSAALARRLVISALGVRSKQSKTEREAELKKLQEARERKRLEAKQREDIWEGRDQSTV
UniProt Q7Z2Z1: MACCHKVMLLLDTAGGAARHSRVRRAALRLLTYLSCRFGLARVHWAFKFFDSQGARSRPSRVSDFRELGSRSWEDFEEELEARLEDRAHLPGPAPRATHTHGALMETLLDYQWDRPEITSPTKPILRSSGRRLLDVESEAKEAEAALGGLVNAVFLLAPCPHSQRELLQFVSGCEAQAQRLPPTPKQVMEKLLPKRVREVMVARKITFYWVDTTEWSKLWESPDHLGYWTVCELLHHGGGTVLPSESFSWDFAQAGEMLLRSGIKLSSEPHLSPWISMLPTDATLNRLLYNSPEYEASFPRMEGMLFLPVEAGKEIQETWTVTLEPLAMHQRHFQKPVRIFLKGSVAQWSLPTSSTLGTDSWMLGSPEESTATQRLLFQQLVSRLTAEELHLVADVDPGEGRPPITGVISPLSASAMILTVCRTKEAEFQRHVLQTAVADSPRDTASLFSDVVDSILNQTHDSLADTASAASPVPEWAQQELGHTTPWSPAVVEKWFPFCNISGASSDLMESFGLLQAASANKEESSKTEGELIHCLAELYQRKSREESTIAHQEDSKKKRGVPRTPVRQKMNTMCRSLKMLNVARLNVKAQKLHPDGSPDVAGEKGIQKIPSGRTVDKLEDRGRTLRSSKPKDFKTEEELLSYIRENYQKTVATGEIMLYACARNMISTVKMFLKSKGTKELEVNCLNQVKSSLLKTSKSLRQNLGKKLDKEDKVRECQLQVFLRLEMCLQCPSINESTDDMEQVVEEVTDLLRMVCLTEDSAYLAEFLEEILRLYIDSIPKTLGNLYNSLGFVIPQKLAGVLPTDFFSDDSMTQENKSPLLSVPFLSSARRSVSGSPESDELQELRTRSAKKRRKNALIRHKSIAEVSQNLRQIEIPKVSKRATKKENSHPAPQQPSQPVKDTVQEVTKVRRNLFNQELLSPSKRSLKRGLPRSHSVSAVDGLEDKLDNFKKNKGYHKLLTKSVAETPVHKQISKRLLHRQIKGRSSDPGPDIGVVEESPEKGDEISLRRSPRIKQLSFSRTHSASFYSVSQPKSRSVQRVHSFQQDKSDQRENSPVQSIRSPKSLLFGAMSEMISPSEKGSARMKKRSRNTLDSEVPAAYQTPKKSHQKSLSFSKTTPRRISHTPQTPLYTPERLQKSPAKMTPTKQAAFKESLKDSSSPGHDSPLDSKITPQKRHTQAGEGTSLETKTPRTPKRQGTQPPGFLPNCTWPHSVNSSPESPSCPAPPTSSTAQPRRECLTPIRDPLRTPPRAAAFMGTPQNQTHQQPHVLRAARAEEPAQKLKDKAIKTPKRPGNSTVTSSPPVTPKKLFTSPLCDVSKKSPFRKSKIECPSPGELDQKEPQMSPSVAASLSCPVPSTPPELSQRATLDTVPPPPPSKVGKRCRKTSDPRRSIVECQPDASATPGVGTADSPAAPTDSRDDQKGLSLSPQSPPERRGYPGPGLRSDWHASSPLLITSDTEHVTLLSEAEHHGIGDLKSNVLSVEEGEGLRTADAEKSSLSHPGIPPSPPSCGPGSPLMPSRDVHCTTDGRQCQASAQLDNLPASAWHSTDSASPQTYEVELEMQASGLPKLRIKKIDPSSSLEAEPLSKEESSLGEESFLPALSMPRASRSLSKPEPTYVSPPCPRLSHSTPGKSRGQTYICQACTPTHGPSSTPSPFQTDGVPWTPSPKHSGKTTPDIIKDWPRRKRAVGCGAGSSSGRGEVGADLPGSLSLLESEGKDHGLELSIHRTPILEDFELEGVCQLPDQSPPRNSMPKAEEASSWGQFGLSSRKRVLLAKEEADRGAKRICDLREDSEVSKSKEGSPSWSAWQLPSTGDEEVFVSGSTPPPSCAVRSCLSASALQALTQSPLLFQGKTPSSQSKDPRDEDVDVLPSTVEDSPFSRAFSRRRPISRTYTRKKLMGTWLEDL

Target | melting temperature shift [°C]
DHX32 (UniProt Q7L7V1) | -1.37
ARHGAP27 (UniProt Q6ZUM4) | -0.779
GOLGA7 (UniProt Q7Z5G4) | -3.96
HDDC2 (UniProt Q7Z4H3) | -1.7
UniProt Q86V87 | -2.8
LUZP1 (UniProt Q86V48) | -1.28
CCDC91 (UniProt Q7Z6B0) | 0.294
MED25 (UniProt Q71SY5) | 0.055
HEATR3 (UniProt Q7Z4Q2) | -0.0518
APOOL (UniProt Q6UXV4) | -2.67
UniProt Q6PL24 | -0.0376
DHX29 (UniProt Q7Z478) | 0.421
ZBTB33 (UniProt Q86T24) | -1.28
C16ORF62 (UniProt Q7Z3J2) | 0.885
PATL1 (UniProt Q86TB9) | -0.24
RICTOR (UniProt Q6R327) | -0.193
AACS (UniProt Q86V21) | -0.256
UniProt Q7L804 | 0.177
MARK2 (UniProt Q7KZI7) | -0.696

Target | melting temperature shift [°C]
UniProt Q7Z698 | 0.171
UniProt Q86V59 | -1.2
COPS6 (UniProt Q7L5N1) | -0.0537
LDB1 (UniProt Q86U70) | -2.49
UniProt Q6ZPD9 | 0.44
UniProt Q6UB99 | -5.98
EFL1 (UniProt Q7Z2Z2) | 0.757
UniProt Q6Y2X3 | 1.34
GLRX5 (UniProt Q86SX6) | -1.48
BLOC1S3 (UniProt Q6QNY0) | -0.986
R3HCC1L (UniProt Q7Z5L2) | -0.494
SETX (UniProt Q7Z333) | -0.235
UniProt Q76FK4 | -0.641
ZC3H14 (UniProt Q6PJT7) | 0.0855
UniProt Q7Z2Z1 | -0.952
PPIP5K1 (UniProt Q6PFW1) | -0.885
UniProt Q7Z6K5 | -0.195
APTX (UniProt Q7Z2E3) | -1.81
UniProt Q6ZYL4 | -0.414

Same assay, conditions: A375; MBE1 concentration: 1 uM

Target | melting temperature shift [°C]
DHX32 (UniProt Q7L7V1) | -0.609
ARHGAP27 (UniProt Q6ZUM4) | 1.72
GOLGA7 (UniProt Q7Z5G4) | -4.93
HDDC2 (UniProt Q7Z4H3) | -2.05
UniProt Q86V87 | -2.99
LUZP1 (UniProt Q86V48) | -0.944
CCDC91 (UniProt Q7Z6B0) | -0.0402
MED25 (UniProt Q71SY5) | 0.733
HEATR3 (UniProt Q7Z4Q2) | 0.715
APOOL (UniProt Q6UXV4) | -2.41
UniProt Q6PL24 | -0.268
DHX29 (UniProt Q7Z478) | 0.769
ZBTB33 (UniProt Q86T24) | -1.45
C16ORF62 (UniProt Q7Z3J2) | 0.183
PATL1 (UniProt Q86TB9) | 0.127
RICTOR (UniProt Q6R327) | -0.87
AACS (UniProt Q86V21) | -0.288
UniProt Q7L804 | 0
MARK2 (UniProt Q7KZI7) | -0.485

Target | melting temperature shift [°C]
UniProt Q7Z698 | 0.782
UniProt Q86V59 | -1.15
COPS6 (UniProt Q7L5N1) | 0.57
LDB1 (UniProt Q86U70) | -0.898
UniProt Q6ZPD9 | 0.403
UniProt Q6UB99 | 0.807
EFL1 (UniProt Q7Z2Z2) | -0.14
UniProt Q6Y2X3 | 1.47
GLRX5 (UniProt Q86SX6) | 0.295
BLOC1S3 (UniProt Q6QNY0) | -0.283
R3HCC1L (UniProt Q7Z5L2) | 1.74
SETX (UniProt Q7Z333) | 2.02
UniProt Q76FK4 | -0.826
ZC3H14 (UniProt Q6PJT7) | 0.208
UniProt Q7Z2Z1 | 0.181
PPIP5K1 (UniProt Q6PFW1) | 0.684
UniProt Q7Z6K5 | -0.104
APTX (UniProt Q7Z2E3) | 0.0706
UniProt Q6ZYL4 | -0.489
